About 3,700 (1.2%) of roughly 300,000 compounds were called active. Inconclusive results, whose numbers are uncertain, are shown with a selection of clear calls. Calls come from the whole dose curve; tested in HEK293 cells. Potencies of inconclusive entries are doubtful fits and often do not repeat.
Assay: qHTS for Inhibitors of binding or entry into cells for Lassa Virus; note: nearly all actives have a fitted effect of over 50% in size
Details: Lassa virus pseudotype entry inhibition, cell reporter; series mostly up to 37.9 µM
Potency is the fitted concentration of half-maximal effect.

Row | SMILES | Potency
1 | C/C(=N\NC(=O)C(C)Nc1cccc(Cl)c1)c1ccc([N+](=O)[O-])cc1 (stereo unspecified) | inconclusive: 2.82 µM [inhibitor, single point]
2 | O=C(Nc1nc(-c2cccs2)c(-c2ccccc2)s1)c1ccco1 | inconclusive: 35.5 µM [inhibitor, single point]
3 | O=C(/C=C/c1ccccc1)NC(=S)NNC(=O)Cc1cccs1 | inconclusive: 15.8 µM [inhibitor, single point]
4 | CCCCN(Cc1cccs1)S(=O)(=O)c1cc(-c2cc(C)no2)ccc1C | inactive
5 | Cc1ccc(C)c(S(=O)(=O)Nc2ccc3scnc3c2)c1 | inconclusive: 11.2 µM [inhibitor, partial curve]
6 | CCSc1ncc(/C=N/Nc2ccc([N+](=O)[O-])cc2)n1C | inconclusive: 1.26 µM [activator, single point]
7 | CCN1CCN(c2csc3ccc(F)cc3c2=O)CC1 | inactive
8 | Cc1ccc2nc(NC(=O)CSc3nncc(=O)n3N)sc2c1 | inconclusive: 0.411 µM [activator, full curve]
9 | c1cncc(-c2nnc3n2N=C(c2cccs2)CS3)c1 | inconclusive: 13 µM [inhibitor, partial curve, poor fit]
10 | CCC(=O)Nc1nnc(SCc2ccccc2F)s1 | inactive
11 | CC(=O)Nc1ccc(NC2=Nc3ccccc3N3C2=Nc2c(c(C)nn2-c2ccccc2)C3c2ccccc2)cc1 (stereo unspecified) | inconclusive: 4.47 µM [inhibitor, partial curve, poor fit]
12 | C=CCNC(=O)c1ccccc1NC(=O)c1ccc(Cl)c(S(=O)(=O)Nc2cc(C)ccc2C)c1 | inconclusive: 5.8 µM [inhibitor, full curve, poor fit]
13 | CCc1ccc(C(=O)COC(=O)c2cc([N+](=O)[O-])ccc2NCCO)cc1 | inconclusive: 1 µM [inhibitor, full curve, poor fit]
14 | C=CCOc1ccccc1CN1CCC(Cc2ccccc2)CC1 | inconclusive: 20 µM [inhibitor, single point]
15 | Cc1ccc(CNC(=O)Cn2ncc3c([nH]c4ccc(C)cc43)c2=O)cc1 | inactive
16 | CN(C)CCCn1c(N)c(S(=O)(=O)c2ccccc2)c2nc3ccccc3nc21 | inactive
17 | COc1cccc(N2CCN(C(=O)c3cc4c(=O)n(Cc5cccs5)ccc4nc3C)CC2)c1 | inactive
18 | COc1cc(C(=O)NCCCN2CCCC2=O)ccc1OCc1ccc(Cl)cc1Cl | inactive
19 | C=C(C)CNC(=S)N/N=C1\CCCCc2ccccc21 | inconclusive: 25.1 µM [inhibitor, partial curve, poor fit]
20 | S=C(Nc1ccccc1)Nc1nccs1 | active: 14.6 µM
21 | CC(=O)N1c2ccc(S(=O)(=O)NCC3CCC(C(=O)Nc4ccc(C)cn4)CC3)cc2CC1C (stereo unspecified) | inconclusive: 8.91 µM [inhibitor, partial curve, poor fit]
22 | COc1ccccc1C(=O)NCC(=O)NNC(=O)C1COc2ccccc2O1 (stereo unspecified) | inconclusive: 0.112 µM [inhibitor, full curve, poor fit]
23 | CC(=C/c1ccco1)/C=N/NC(=O)c1ccncc1 | inactive

Some of these compounds in order of number of heavy atoms, falling.
Row | SMILES | Potency
17 | COc1cccc(N2CCN(C(=O)c3cc4c(=O)n(Cc5cccs5)ccc4nc3C)CC2)c1 | inactive
1 | C/C(=N\NC(=O)C(C)Nc1cccc(Cl)c1)c1ccc([N+](=O)[O-])cc1 (stereo unspecified) | inconclusive: 2.82 µM [inhibitor, single point]
8 | Cc1ccc2nc(NC(=O)CSc3nncc(=O)n3N)sc2c1 | inconclusive: 0.411 µM [activator, full curve]

(next part)

Row | SMILES | Potency
24 | COc1ccc(C(=O)COC(=O)c2ccccn2)c(OC)c1 | inconclusive: 5.62 µM [inhibitor, single point]
25 | C=CCn1c(=NC(=O)c2ccc(S(=O)(=O)N3CCCc4ccccc43)cc2)sc2cc(S(N)(=O)=O)ccc21 | inactive
26 | O=C(CCC(=O)Nc1cc(C(F)(F)F)ccc1Cl)N/N=C\c1cc([N+](=O)[O-])ccc1O | inconclusive: 17.8 µM [inhibitor, single point]
27 | CCN(C(=O)CCNC(=O)Cn1cnc2ccccc2c1=O)c1cccc(Cl)c1 | inactive
28 | O=C(NCCN1Cc2ccccc2C1=O)c1cccs1 | inconclusive: 11.2 µM [activator, partial curve, poor fit]
29 | Cc1ccc(/C=N/NC(=O)CCn2nc(C)cc2C)c(C)c1 | inconclusive: 10 µM [inhibitor, partial curve]
30 | CS(=O)(=O)N(Cc1ccc(Cl)cc1)c1ccc(C(=O)NCCC2=CCCCC2)cc1 | inconclusive: 18.3 µM [inhibitor, partial curve]
31 | COc1ccccc1/C=C(/C(=O)OCC(=O)NCc1ccccc1)c1ccccc1 | inconclusive: 29.1 µM [inhibitor, single point]
32 | COc1cc2[nH]c(=S)n(C3CCN(Cc4ccccc4)CC3)c(=O)c2cc1OC | inactive
33 | CCCOC(=O)c1ccc(NC(=O)c2cnccn2)cc1 | inactive
34 | Cc1ccc(NC(=O)c2c(C(=O)Nc3ccccc3)sc3nc(C)cc(=O)n23)c(C)c1 | inactive
35 | Cc1nn(-c2ccccc2)c(OC(=O)c2ccc(F)cc2)c1S(=O)(=O)c1ccccc1 | inconclusive: 5.62 µM [activator, single point]
36 | Cc1ccc(CSc2nc3ncccc3[nH]2)cc1 | inconclusive: 15.8 µM [inhibitor, partial curve, poor fit]
37 | CCOC(=O)c1cn(-c2ccc(F)c(F)c2F)c2c(F)c(F)c(F)cc2c1=O | inconclusive: 20.6 µM [inhibitor, single point]
38 | COc1ccc(/C=C2\SC(=O)N(CCC(=O)Nc3ccccc3)C2=O)cc1OC | inactive
39 | CCOC(=O)C1C(=O)C=C(c2ccc(C)cc2)CC1c1ccccc1 (stereo unspecified) | active: 15.8 µM
40 | COc1ccc(/C=C(\C#N)c2c[nH]c3ccccc23)cc1 | inconclusive: 8.2 µM [inhibitor, partial curve, poor fit]
41 | CC(Oc1ccccc1)C(=O)Nc1cccc(-c2nc3ccccc3[nH]2)c1 (stereo unspecified) | inactive
42 | OC(c1ccc(F)cc1)C(CN1CCOCC1)c1ccccc1 (stereo unspecified) | inactive
43 | Cc1c(C(=O)N/N=C/c2cccs2)nnn1-c1nonc1N | inconclusive: 0.794 µM [inhibitor, partial curve, poor fit]
44 | CC(C)c1nnc(NC(=O)CCC(=O)N2CCC(Cc3ccccc3)CC2)s1 | inactive
45 | C=CCN(c1ccccc1Cl)S(=O)(=O)c1cccc(C(=O)NCCc2ccc(OC)cc2)c1 | active: 11.6 µM
46 | CCOc1ccc(NC(=O)Nc2ccccc2SC)cc1 | inconclusive: 35.5 µM [inhibitor, single point]

Reference: PubChem BioAssay AID540256 (National Center for Advancing Translational Sciences (NCATS), 2011)
